PubChem BioAssay AID256 (DTP/NCI, 2004)
The list shows only some results of the screen, not a fair sample: it is rich in T/C values a quarter to a half above the control, in often repeated tests (any T/C) and in doses without a T/C. Further doses and runs are listed elsewhere. T/C is the treated group as % of the vehicle group. Some entries give survivors of the animals treated and no T/C: the source files T/C as zero there, which appears to mark a toxic dose or a test without result, not a measured value. Some doses without a T/C left all or most animals alive at the check, yet need not have been tolerated: survival well below the control is almost never listed, so the zero probably covers shortened survival too. Counts of survivors are from the toxicity check (mostly the fifth day) where no day follows; animals may have died later. Schedules are NCI's codes, taken here to give the interval after Q, in days (D) or hours (H), and the number of doses after X. Some doses were run more than once; their values stand side by side, smallest first. For survival time, the PubChem record calls one and a half times the control and up active, and a quarter to a half above the control has no call in these data; cut-offs in other NCI protocols can differ. Some T/C values carry the count of animals alive at the toxicity check (mostly the fifth day); without a count, all were alive then. Brackets with × give the number of equal values in this list.

Test system: CD2F1 mice, L1210 leukemia ip, survival T/C
Test: NCI In Vivo Anticancer Drug Screen. Data for tumor model L1210 Leukemia (intraperitoneal) in CD2F1 (CDF1) mice
Settings: higher T/C = longer survival
In short: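 Each value reflects a quotient of treated over vehicle control outcomes in mice with a transplanted tumor.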

CN(C)/N=N/c1nc[nH]c1C(N)=O
T/C (T/C endpoint: mean survival time, dose: 200.0 mg/kg/injection, schedule: Q01DX005 (ip), vehicle: saline, evaluated on day 30): 155 and 162 % of control
T/C (T/C endpoint: mean survival time, dose: 200.0 mg/kg/injection, schedule: Q01DX009 (ip), vehicle: DMSO): 137 % of control
T/C (T/C endpoint: mean survival time, dose: 200.0 mg/kg/injection, schedule: Q01DX009 (ip), vehicle: Klucel (hydroxypropylcellulose) (HPC)): 109, 121, 125, 127, 134, 137, 138, 140, 150 (2×), 154, 164, 176, 213 % of control
T/C (T/C endpoint: mean survival time, dose: 200.0 mg/kg/injection, schedule: Q01DX009 (ip), vehicle: other, evaluated on day 30): 98, 119, 131, 134, 139, 140, 157, 161 (2×), 164, 165, 166, 168, 172, 183 % of control
T/C (T/C endpoint: mean survival time, dose: 200.0 mg/kg/injection, schedule: Q01DX009 (ip), vehicle: other, evaluated on day 45): 165 % of control
T/C (T/C endpoint: mean survival time, dose: 200.0 mg/kg/injection, schedule: Q01DX009 (ip), vehicle: saline): 133 % of control
T/C (T/C endpoint: mean survival time, dose: 200.0 mg/kg/injection, schedule: Q03DX003 (ip), vehicle: saline): 136 % of control
T/C (T/C endpoint: mean survival time, dose: 200.0 mg/kg/injection, schedule: Q04DX003 (ip), vehicle: other): 125 and 132 % of control
T/C (T/C endpoint: mean survival time, dose: 200.0 mg/kg/injection, schedule: Q04DX003 (ip), vehicle: saline): 127 % of control
T/C (T/C endpoint: mean survival time, dose: 200.0 mg/kg/injection, schedule: Q04DX003 (ip), vehicle: water): 138 % of control
T/C (T/C endpoint: mean survival time, dose: 300.0 mg/kg/injection, schedule: Q01DX009 (ip), vehicle: Klucel (hydroxypropylcellulose) (HPC)): 129 % of control
T/C (T/C endpoint: mean survival time, dose: 400.0 mg/kg/injection, schedule: Q01DX005 (ip), vehicle: saline, evaluated on day 5): 129 and 135 % of control
T/C (T/C endpoint: mean survival time, dose: 400.0 mg/kg/injection, schedule: Q01DX005 (ip), vehicle: saline, evaluated on day 30): 128 and 130 % of control
T/C (T/C endpoint: mean survival time, dose: 400.0 mg/kg/injection, schedule: Q01DX009 (ip), vehicle: DMSO): 134 % of control
T/C (T/C endpoint: mean survival time, dose: 400.0 mg/kg/injection, schedule: Q01DX009 (ip), vehicle: Klucel (hydroxypropylcellulose) (HPC)): 94 [4 of 6 alive], 109, 113, 114 [5 of 6 alive], 120, 121, 122, 123, 125, 127, 133, 134, 140 % of control (2×)
T/C (T/C endpoint: mean survival time, dose: 400.0 mg/kg/injection, schedule: Q01DX009 (ip), vehicle: other, evaluated on day 30): 98, 104 [5 of 6 alive], 105 [5 of 6 alive], 106, 118, 120 [5 of 6 alive], 122 [5 of 6 alive] (2×), 140 [4 of 6 alive], 140 % of control [5 of 6 alive]
T/C (T/C endpoint: mean survival time, dose: 400.0 mg/kg/injection, schedule: Q01DX009 (ip), vehicle: other, evaluated on day 45): 103 % of control [4 of 6 alive]
survivor count (T/C endpoint: mean survival time, dose: 400.0 mg/kg/injection, schedule: Q01DX009 (ip), vehicle: other): 1 of 6, 5 of 6, 3 of 3, 6 of 6
T/C (T/C endpoint: mean survival time, dose: 400.0 mg/kg/injection, schedule: Q01DX009 (ip), vehicle: steroid suspending solution): 144 % of control [7 of 8 alive]
T/C (T/C endpoint: mean survival time, dose: 400.0 mg/kg/injection, schedule: Q04DX003 (ip), vehicle: Klucel (hydroxypropylcellulose) (HPC)): 135 % of control
T/C (T/C endpoint: mean survival time, dose: 400.0 mg/kg/injection, schedule: Q04DX003 (ip), vehicle: other): 125 and 143 % of control
T/C (T/C endpoint: mean survival time, dose: 400.0 mg/kg/injection, schedule: Q04DX003 (ip), vehicle: steroid suspending solution): 135 % of control
T/C (T/C endpoint: mean survival time, dose: 400.0 mg/kg/injection, schedule: Q04DX003 (ip), vehicle: water): 132 % of control
T/C (T/C endpoint: mean survival time, dose: 400.0 mg/kg/injection, schedule: Q04DX003 (oral), vehicle: steroid suspending solution): 134 % of control
T/C (T/C endpoint: mean survival time, dose: 400.0 mg/kg/injection, schedule: Q08DX002 (oral), vehicle: steroid suspending solution): 129 % of control
survivor count (T/C endpoint: mean survival time, dose: 546.0 mg/kg/injection, schedule: Q01DX009 (ip), vehicle: Klucel (hydroxypropylcellulose) (HPC)): 10 of 10
T/C (T/C endpoint: mean survival time, dose: 800.0 mg/kg/injection, schedule: Q04DX003 (ip), vehicle: steroid suspending solution): 149 % of control [7 of 8 alive]
T/C (T/C endpoint: mean survival time, dose: 800.0 mg/kg/injection, schedule: Q04DX003 (oral), vehicle: steroid suspending solution): 135 % of control
T/C (T/C endpoint: mean survival time, dose: 1200.0 mg/kg/injection, schedule: Q01DX001 (oral), vehicle: saline): 133 % of control
T/C (T/C endpoint: median survival time, dose: 50.0 mg/kg/injection, schedule: Q03HX008 (ip), vehicle: Klucel (hydroxypropylcellulose) (HPC)): 127 % of control
T/C (T/C endpoint: median survival time, dose: 75.0 mg/kg/injection, schedule: Q03HX008 (ip), vehicle: Klucel (hydroxypropylcellulose) (HPC)): 131 % of control [8 of 9 alive]
T/C (T/C endpoint: median survival time, dose: 160.0 mg/kg/injection, schedule: Q01DX005 (ip), vehicle: Klucel (hydroxypropylcellulose) (HPC)): 135 % of control
T/C (T/C endpoint: median survival time, dose: 200.0 mg/kg/injection, schedule: Q02DX005 (ip), vehicle: Klucel (hydroxypropylcellulose) (HPC)): 144 % of control
T/C (T/C endpoint: median survival time, dose: 240.0 mg/kg/injection, schedule: Q01DX005 (ip), vehicle: Klucel (hydroxypropylcellulose) (HPC)): 129 % of control
T/C (T/C endpoint: median survival time, dose: 400.0 mg/kg/injection, schedule: Q02DX005 (ip), vehicle: Klucel (hydroxypropylcellulose) (HPC)): 127 % of control
